Here are results for five targets from the supplement of paper PMC6411743.

Chains of the proteins cited; added tags and fusions are not shown. Lines headed by an entry give the natural chain unless they say otherwise; changes in a name come on top.
UniProt P61968: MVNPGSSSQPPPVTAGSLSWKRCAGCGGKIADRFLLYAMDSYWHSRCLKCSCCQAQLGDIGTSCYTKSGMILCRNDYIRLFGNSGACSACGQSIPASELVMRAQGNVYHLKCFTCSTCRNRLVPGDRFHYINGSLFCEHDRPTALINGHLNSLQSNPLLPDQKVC
UniProt P62140, whole entry: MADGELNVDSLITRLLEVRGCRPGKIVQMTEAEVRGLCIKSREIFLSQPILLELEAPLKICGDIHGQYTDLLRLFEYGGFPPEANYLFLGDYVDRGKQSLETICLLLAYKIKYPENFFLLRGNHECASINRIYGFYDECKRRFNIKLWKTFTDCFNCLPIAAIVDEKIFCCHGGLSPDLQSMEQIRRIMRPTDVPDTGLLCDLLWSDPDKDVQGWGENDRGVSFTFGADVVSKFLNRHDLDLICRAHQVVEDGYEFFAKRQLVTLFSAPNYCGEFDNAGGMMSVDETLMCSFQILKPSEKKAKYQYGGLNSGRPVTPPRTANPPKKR
UniProt Q00535, whole entry, looked up: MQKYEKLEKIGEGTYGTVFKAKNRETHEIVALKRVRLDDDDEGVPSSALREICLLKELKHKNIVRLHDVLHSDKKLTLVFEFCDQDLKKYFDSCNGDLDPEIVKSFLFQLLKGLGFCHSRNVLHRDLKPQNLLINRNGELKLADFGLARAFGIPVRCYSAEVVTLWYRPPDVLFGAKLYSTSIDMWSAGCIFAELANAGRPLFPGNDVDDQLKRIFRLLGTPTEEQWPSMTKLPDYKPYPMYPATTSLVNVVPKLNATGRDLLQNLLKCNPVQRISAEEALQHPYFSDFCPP

± gives the standard deviation of the averaged measurements. Some of the results follow.

Compound in this experiment: Nc1nc2c(ncn2[C@@H]2O[C@H](COP(=O)(O)OP(=O)(O)OP(=O)(O)O)[C@@H](O)[C@H]2O)c(=O)[nH]1 [guanosine triphosphate]
The experiment in a line: NP40-soluble protein abundance relative to vehicle (solubility fold change) (ratio); higher = more soluble protein in presence of GTP. The method, then: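 Solubility proteome profiling in Jurkat crude lysate. Lysate was treated with Mg-GTP (0.1-10 mM) for 10 min at room temperature and 3 min at 37 °C, then solubilised with 0.8% NP40 and benzonase, followed by ultracentrifugation. Proteins were quantified by TMT10 LC-MS/MS; the value is the NP40-soluble abundance relative to the NP40-processed vehicle, from 3 independent experiments.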

Consider LMO4 (UniProt P61968), for which the NP40-soluble protein abundance reads like this: (concentration: 0.1mM) 0.979 ± 0.11; (concentration: 0.5mM) 1.05 ± 0.14; (concentration: 1mM) 1.02 ± 0.089; (concentration: 2mM) 1.07 ± 0.26; (concentration: 4mM) 0.95 ± 0.14; (concentration: 6mM) 1.02 ± 0.13. Besides, the NP40-soluble protein abundance was 0.953 ± 0.082 (concentration: 8mM) and 1.01 ± 0.24 (concentration: 10mM).

With UniProt P62140, the NP40-soluble protein abundance runs as follows: (concentration: 0.1mM) 1.02 ± 0.043; (concentration: 0.5mM) 0.959 ± 0.014; (concentration: 1mM) 0.951 ± 0.027; (concentration: 2mM) 0.945 ± 0.044; (concentration: 4mM) 0.981 ± 0.042; (concentration: 6mM) 0.942 ± 0.016. The NP40-soluble protein abundance runs as follows: (concentration: 8mM) 0.987 ± 0.034; (concentration: 10mM) 0.961 ± 0.025.

As for EIF6 (UniProt P56537), the NP40-soluble protein abundance reads like this: (concentration: 0.1mM) 1.05 ± 0.023; (concentration: 0.5mM) 1.03 ± 0.034; (concentration: 1mM) 0.995 ± 0.027; (concentration: 2mM) 1.02 ± 0.035; (concentration: 4mM) 1.05 ± 0.031; (concentration: 6mM) 0.955 ± 0.034. Further, the NP40-soluble protein abundance reads like this: (concentration: 8mM) 0.956 ± 0.035; (concentration: 10mM) 0.95 ± 0.049.

For CDK5 (UniProt Q00535), the NP40-soluble protein abundance was 1.06 ± 0.015 (concentration: 0.1mM); 1.04 ± 0.019 (concentration: 0.5mM); 0.96 ± 0.037 (concentration: 1mM); 0.931 ± 0.042 (concentration: 2mM); 0.928 ± 0.036 (concentration: 4mM); 0.882 ± 0.043 (concentration: 6mM). The NP40-soluble protein abundance (concentration: 8mM) amounted to 0.919 ± 0.044 and the NP40-soluble protein abundance (concentration: 10mM) is 0.875 ± 0.089.

UniProt P61218 and related entries: the NP40-soluble protein abundance turned out to be 1.04 ± 0.059 (concentration: 0.1mM); 1.08 ± 0.035 (concentration: 0.5mM); 1.18 ± 0.046 (concentration: 1mM); 1.16 ± 0.021 (concentration: 2mM); 1.22 ± 0.047 (concentration: 4mM); 1.21 ± 0.071 (concentration: 6mM). Further, the NP40-soluble protein abundance came to 1.18 ± 0.13 (concentration: 8mM) and 1.31 ± 0.073 (concentration: 10mM).
